Experimental data: PubChem BioAssay AID1671190 (National Center for Advancing Translational Sciences (NCATS), 2021)
In all, about 580,000 compounds went through this assay and about 6,100 (1.1%) were called active. The shares of active, inactive and inconclusive entries below differ from those in the screen. Calls follow the shape of the dose curve; as a rule, active = well fitted inhibition curve with a large enough effect; inconclusive = small, poorly fitted or top-dose-only effect, or another doubt; inactive = no such curve, though single readings can be large or run the other way. Potencies of inconclusive entries are doubtful fits and often do not repeat.

Chains of the proteins cited; added tags and fusions are not shown.
UniProt P18054, whole entry, looked up: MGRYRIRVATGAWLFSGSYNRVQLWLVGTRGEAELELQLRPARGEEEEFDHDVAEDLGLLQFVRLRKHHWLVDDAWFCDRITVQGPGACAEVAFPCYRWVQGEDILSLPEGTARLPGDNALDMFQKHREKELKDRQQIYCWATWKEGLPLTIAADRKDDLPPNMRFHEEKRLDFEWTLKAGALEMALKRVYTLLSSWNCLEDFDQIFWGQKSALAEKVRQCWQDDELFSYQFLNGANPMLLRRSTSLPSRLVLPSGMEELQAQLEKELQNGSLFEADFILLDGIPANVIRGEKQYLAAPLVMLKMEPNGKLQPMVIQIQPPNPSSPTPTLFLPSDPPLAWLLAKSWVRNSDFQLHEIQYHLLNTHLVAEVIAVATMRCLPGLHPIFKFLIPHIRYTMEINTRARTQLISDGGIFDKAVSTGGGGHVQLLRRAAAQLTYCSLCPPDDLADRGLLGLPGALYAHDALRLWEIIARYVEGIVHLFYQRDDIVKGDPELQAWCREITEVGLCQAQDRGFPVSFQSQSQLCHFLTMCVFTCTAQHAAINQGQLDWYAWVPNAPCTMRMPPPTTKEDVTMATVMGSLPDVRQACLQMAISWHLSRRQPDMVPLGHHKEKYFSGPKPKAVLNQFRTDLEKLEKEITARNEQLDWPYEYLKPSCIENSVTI

target: Polyunsaturated fatty acid lipoxygenase ALOX12 (Homo sapiens) (UniProt P18054); assay: Primary qHTS assay for inhibitors of human arachidonate 12S-lipoxygenase (ALOX12): Round 2; details: purified 12hLO, xylenol orange hydroperoxide absorbance; activity change, negative = inhibition: at 108 µM (top of the series) unless noted
Procedure, shortened: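 Hydroperoxide product was detected by ferrous iron/xylenol orange as the 573 to 405 nm absorbance ratio. Arachidonic acid at 40 uM (final) was turned over for 30 min at room temperature by 150 nM human 12hLO, pH 7.0 Hepes buffer, after 15 min compound preincubation.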
% is scaled to controls: 0 for no effect and ±100 for the full control effect; potency is read from the fitted curve at half-maximal effect.

| Compound | activity change, negative = inhibition | Potency |
| --- | --- | --- |
| Cc1ccccc1NC(=O)CCNS(=O)(=O)c1ccc2c(c1)CCN2C(=O)C1CC1 | inactive: 11.2% | – |
| COc1ccc(C2Cn3nnc(C(=O)NCc4ccc(F)cc4Cl)c3CO2)cc1 (stereo not given) | inactive: 7.49% | – |
| O=C(Nc1ccccc1)N1CCC(c2nnc3n2CCNC3)CC1 | – | inconclusive: 3.59 µM [inhibitor, single point] |
| Cc1nc(N2CCN(Cc3ccc(Cl)cc3)CC2)c2oc3ccccc3c2n1 | – | inconclusive: 15.8 µM [inhibitor, full curve, poor fit] |
| CC(=O)Nc1ccc(S(=O)(=O)Oc2ccccc2N2CCCCC2)cc1 | – | inconclusive: 100 µM [inhibitor, single point] |
| CCCCn1nnnc1C1(C)CCC(=O)N1CC1CCCCC1 (stereo not given) | – | inconclusive: 22.4 µM [inhibitor, single point] |
| CCOc1ccccc1/C=c1\sc2nc(-c3ccco3)nn2c1=O | – | inconclusive: 56.2 µM [inhibitor, partial curve, poor fit] |
| O=C1CSc2ccc(S(=O)(=O)Nc3ccc(F)cc3)cc2N1 | – | inconclusive: 12.6 µM [inhibitor, partial curve, poor fit] |
| Nc1nc(Nc2cccc(F)c2)sc1C(=O)c1ccccc1Cl | inactive: 1.5% | – |
| CCOc1ccc(C(Nc2ccc(C)cc2)P2(=O)OCCC(C)O2)cc1 (stereo not given) | – | inconclusive: 112 µM [inhibitor, single point] |
| O=C1c2c(-c3ccc(Br)cc3)noc2CCN1Cc1cn(Cc2cccnc2)nn1 | inactive: 0% | – |
| CCCCN1C(=O)/C(=C/C=C2\SCCN2C)SC1=S | – | inconclusive: 28.2 µM [inhibitor, partial curve] |
| CCCc1cc(=O)oc2cc(OS(=O)(=O)c3ccccc3F)ccc12 | – | inconclusive: 7.08 µM [inhibitor, full curve, poor fit] |
| Cc1cc(-c2n[nH]c(=S)n2/N=C/C=C/c2ccccc2)n[nH]1 | – | inconclusive: 39.8 µM [inhibitor, partial curve, poor fit] |
| COc1ccc(OC)c(N2C(=O)[C@@H]3C(c4ccccc4Cl)=NO[C@@H]3C2=O)c1 | – | inconclusive: 70.8 µM [inhibitor, partial curve, poor fit] |
| CC(C#N)(NC(=O)CSc1ccccn1)C1CC1 (stereo not given) | – | inconclusive: 89.1 µM [inhibitor, partial curve, poor fit] |
| CN(CC1CCCCC1)[C@H]1CC[C@@]23CCCN2C(=O)CCC[C@H]3[C@H]1Cc1ccccc1 | – | inconclusive: 31.6 µM [inhibitor, partial curve, poor fit] |
| CNC(=O)c1ccc(C)c(NC(=O)c2ccc3c(c2)CCCC3)c1 | – | inconclusive: 89.1 µM [inhibitor, single point] |
| O=C(Cc1cccn1-c1ccc(F)cc1)NCc1ccc(N2CCOCC2)cc1 | inactive: -1.25% | – |
| Cc1nc(C)c(C(=O)N2CCCC(C(=O)c3ccc(Cl)cc3C)C2)s1 (stereo not given) | inactive: -29.3% | – |

| Compound | activity change, negative = inhibition | Potency |
| --- | --- | --- |
| COc1cc(NC(C)C(=O)N2CC(C)OC(C)C2)cc(OC)c1 (stereo not given) | – | inconclusive: 1.26 µM [inhibitor, full curve, poor fit] |
| CC(C)C1C(C#N)=C(N)SC(N)=C1C#N | inactive: -23.2% | – |
| O=C(O)C(c1ccccc1)N1C(=O)/C(=C\c2ccc(-c3ccccc3Cl)o2)SC1=S (stereo not given) | inactive: 15.8% | – |
| Cc1c(Cl)cnc(NC(=O)COC(=O)c2ccc(S(=O)(=O)NCc3ccco3)cc2)c1Cl | – | inconclusive: 44.7 µM [inhibitor, partial curve, poor fit] |
| CC(C)=CCC[C@](C)(O[C@@H]1O[C@H](CO[C@@H]2O[C@H](CO)[C@@H](O)[C@H](O)[C@H]2O)[C@@H](O)[C@H](O)[C@H]1O)C1CC[C@]2(C)C1C(=O)CC1[C@@]3(C)CC[C@H](O[C@H]4O[C@@H](CO)[C@H](O)[C@@H](O)[C@@H]4O)C(C)(C)C3CC[C@]12C (stereo not given in full) | – | inconclusive: 50.1 µM [inhibitor, partial curve, poor fit] |
| C/C=C/Oc1ccc(C(=O)/C(=C\c2ccncc2)c2nc3ccccc3o2)cc1 | inactive: 8.37% | – |
| COc1ccc(OCC(=O)c2c(O)c3ccccc3oc2=O)cc1 | – | inconclusive: 3.98 µM [inhibitor, full curve, poor fit] |
| CCC(C)n1nnc2cc(S(=O)(=O)N3CCC(C(=O)NCc4ccc(OC)cc4)CC3)ccc21 (stereo not given) | inactive: 9.4% | – |
| Cc1ccc(OCCn2c(C)c(/C=N/n3cnnc3)c3ccccc32)cc1 | inactive: -18.6% | – |
| COc1ccccc1NC(=O)c1ccccc1SCC(=O)N1CCCC1 | – | inconclusive: 39.8 µM [inhibitor, partial curve, poor fit] |
| O=C(NC1CCOCC1)c1ccc2c(c1)OCCN(c1ccccc1)C2 | – | inconclusive: 100 µM [inhibitor, partial curve, poor fit] |
| CCn1c2ccccc2c2cc(NC(=O)CNC)ccc21 | – | inconclusive: 2 µM [inhibitor, full curve, poor fit] |
| COc1ccc(CNC(=O)N2CCN(c3ccccc3)CC2)cc1 | inactive: -2.29% | – |
| Fc1cccc(CCN2C(=S)NC[C@@H]2Cc2ccccc2)c1 | – | inconclusive: 50.1 µM [inhibitor, partial curve, poor fit] |
| COC(=O)C1=C(O)/C(=C\c2cc(C)n(-c3ccccc3F)c2C)N=C1C | – | inconclusive: 35.5 µM [inhibitor, partial curve, poor fit] |
| Cc1cc(C)n2nc(C(=O)OCC(=O)N(C)C3CCS(=O)(=O)C3)nc2n1 (stereo not given) | – | inconclusive: 35.5 µM [inhibitor, partial curve, poor fit] |
| CN(CCC#N)C(=O)CNC(=O)C1CCCN(S(=O)(=O)c2ccc(Cl)cc2)C1 (stereo not given) | inactive: -18.7% | – |
| Cc1cc(Br)ccc1NC(=O)C[C@H]1NC(=O)c2ccccc2NC1=O | – | inconclusive: 39.8 µM [inhibitor, partial curve, poor fit] |
| CCCN1CC(=O)N2C(c3ccccc3)c3[nH]c4ccccc4c3C[C@H]2C1=O (stereo not given in full) | – | inconclusive: 28.2 µM [inhibitor, single point] |
| COc1ccc(C(CNC(=O)Cc2ccccc2)N2CCCCC2)cc1 (stereo not given) | – | inconclusive: 126 µM [inhibitor, partial curve, poor fit] |

3 entries already listed, ordered by length of the SMILES, smallest number first:

| Compound | activity change, negative = inhibition | Potency |
| --- | --- | --- |
| Fc1cccc(CCN2C(=S)NC[C@@H]2Cc2ccccc2)c1 | – | inconclusive: 50.1 µM [inhibitor, partial curve, poor fit] |
| CNC(=O)c1ccc(C)c(NC(=O)c2ccc3c(c2)CCCC3)c1 | – | inconclusive: 89.1 µM [inhibitor, single point] |
| COC(=O)C1=C(O)/C(=C\c2cc(C)n(-c3ccccc3F)c2C)N=C1C | – | inconclusive: 35.5 µM [inhibitor, partial curve, poor fit] |
